PubChem BioAssay AID652243 | Drosophila RNAi Screening Center – 2013

Assay: 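Knock-downs that decrease or increase androgen receptor reporter signal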 (primary screen)
System: Drosophila S2R+ cells
Reagent: long dsRNA against Drosophila genes
Time to read-out: 72 h (48 h, then 24 h hormone)
Challenge: synthetic androgen R1881 at 10 nM for 24 h
Measurement: 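Per-well raw luminescence of the androgen-driven firefly reporter and of the Renilla control, two replicates each, without normalisation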
Reading the numbers: firefly reporter light: higher = more light from androgen-responsive reporter; Renilla control light: higher = more constitutive control signal (cell number, transfection)
Hit rule: 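Hit when the log firefly-to-Renilla ratio dropped or increased by a fixed fold versus the mean of GFP or LacZ controls across duplicate plates; lowering cut given as 1.5 and as 3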
Calls: active = hit: reporter lowered or raised; inactive = no hit
The screen tested about 24,000 reagents; below is a random part of those that have a named target and a result. Of all reagents, 246 (1%) are marked active. 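Plates not normalised; calls are printed but the firefly/Renilla ratio behind them is not deposited; fold cut for lowering reported inconsistently.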 Raw values vary from plate to plate and are shown uncorrected. No sequences are given here. Not stated in the record: the amount of reagent.

CG31800 [DRSC22525] scored firefly reporter light, replicate 1 = 8.17e5; firefly reporter light, replicate 2 = 7.44e5; Renilla control light, replicate 1 = 2.53e6; Renilla control light, replicate 2 = 2.15e6; inactive.
With knock-down of CG31800 [DRSC29916], the record shows firefly reporter light, replicate 1 = 5.41e5; firefly reporter light, replicate 2 = 3.44e5; Renilla control light, replicate 1 = 1.39e6; Renilla control light, replicate 2 = 1.45e6; inactive.
With knock-down of FMRFa [DRSC07428] the results were firefly reporter light, replicate 1 = 2.59e5; firefly reporter light, replicate 2 = 1.77e5; Renilla control light, replicate 1 = 1.45e6; Renilla control light, replicate 2 = 1.27e6; inactive.
After knock-down of CG43658 [DRSC19455], the record shows firefly reporter light, replicate 1 = 4.96e5; firefly reporter light, replicate 2 = 6.00e5; Renilla control light, replicate 1 = 3.96e6; Renilla control light, replicate 2 = 3.38e6; inactive.
CG43658 [DRSC20111] gave firefly reporter light, replicate 1 = 5.97e5; firefly reporter light, replicate 2 = 6.01e5; Renilla control light, replicate 1 = 3.56e6; Renilla control light, replicate 2 = 2.48e6; inactive.
CG43658 [DRSC25232] scored firefly reporter light, replicate 1 = 9.19e5; firefly reporter light, replicate 2 = 1.31e6; Renilla control light, replicate 1 = 1.18e6; Renilla control light, replicate 2 = 1.21e6; inactive.
Knock-down of CG43658 [DRSC25445] came out at: firefly reporter light, replicate 1 = 5.69e5; firefly reporter light, replicate 2 = 8.94e5; Renilla control light, replicate 1 = 8.59e5; Renilla control light, replicate 2 = 1.13e6; inactive.

Reformatted: entries from further up.
CG43658 [DRSC25232]
- firefly reporter light, replicate 1: 9.19e5
- firefly reporter light, replicate 2: 1.31e6
- Renilla control light, replicate 1: 1.18e6
- Renilla control light, replicate 2: 1.21e6
- outcome: inactive

CG43658 [DRSC25445]
- firefly reporter light, replicate 1: 5.69e5
- firefly reporter light, replicate 2: 8.94e5
- Renilla control light, replicate 1: 8.59e5
- Renilla control light, replicate 2: 1.13e6
- outcome: inactive

Further entries:
nop5 [DRSC03582] showed firefly reporter light, replicate 1 = 1.94e5; firefly reporter light, replicate 2 = 2.69e5; Renilla control light, replicate 1 = 1.74e6; Renilla control light, replicate 2 = 1.41e6; inactive.
CG13014 [DRSC19533] gave firefly reporter light, replicate 1 = 4.40e5; firefly reporter light, replicate 2 = 4.38e5; Renilla control light, replicate 1 = 2.57e6; Renilla control light, replicate 2 = 2.56e6; inactive.
CG13014 [DRSC24448] showed firefly reporter light, replicate 1 = 8.50e5; firefly reporter light, replicate 2 = 1.02e6; Renilla control light, replicate 1 = 8.96e5; Renilla control light, replicate 2 = 8.30e5; inactive.
Knock-down of CG13014 [DRSC38999] gave: firefly reporter light, replicate 1 = 8.53e5; firefly reporter light, replicate 2 = 9.10e5; Renilla control light, replicate 1 = 1.37e6; Renilla control light, replicate 2 = 1.40e6; inactive.
Knock-down of CG12213 [DRSC14478] resulted in: firefly reporter light, replicate 1 = 4.55e5; firefly reporter light, replicate 2 = 4.63e5; Renilla control light, replicate 1 = 3.17e6; Renilla control light, replicate 2 = 3.42e6; inactive.
CG12213 [DRSC22109] showed firefly reporter light, replicate 1 = 6.62e5; firefly reporter light, replicate 2 = 8.06e5; Renilla control light, replicate 1 = 2.48e6; Renilla control light, replicate 2 = 2.54e6; inactive.
After knock-down of CG12213 [DRSC25474] the results were firefly reporter light, replicate 1 = 1.25e6; firefly reporter light, replicate 2 = 1.32e6; Renilla control light, replicate 1 = 1.32e6; Renilla control light, replicate 2 = 1.32e6; inactive.
